experiment: label from the status in PepcDB records

| Sequence | protein production |
| --- | --- |
| MGDTGRTPLATARGAGRTQAGSKSPARGAPGNTGDDHSRTTHVHARKRFEQRGEGRGSHVEGDRRGPGGGKDARITCRGPELRGHVRPEAGPPRRGRGARLPAAVGGVGRRAEGACPGGGGGAILAKGGSGSADRGGGGARSGGRRLPARRPRSGAERRMQQPQPQGQQQPGPGQQLGVQGAAPGAGGGPGGGPGPGPCLRRELKLLESIFHRGHERFRIASACLDELSCEFLLAGAGGAGAGAAPGPHLPSRGSVPGDPVRIHCNITESYPAVPPIWSVESDDPNLAAVLERLVDIKKGNTLLLQHLKRIISDLCKLYNLPQHPDVEMLDQPLPAEQNSCTQEEVSSEDEDEEMPEDTEDLDHYEMKEEEPAEGKKSEDDGIGKENLAILEKIKKNQRQDYLNGAVSGSVQATDRLMKELRDIYRSQSFKGGNYAVELVNDSLYDWNVKLLKVDQDSALHNDLQILKEKEGADFILLNFSFKDNFPFDPPFVRVVSPVLSGGYVLGGGAICMELLTKQGWSSAYSIESVIMQISATLVKGKARVQFGANKSQYSLTRAQQSYKSLVQIHEKNGWYTPPKEDG | failed |
| MRPTSGITLGGRFQLTSRIAIGGMGEVWKAKDQILGRIVAIKVLKEEYTGDPGFLQRFRAEARHTALLNHVGIANVFDYGEEAGSAYLVMELVPGHPLSGILEREQVLSPDMTLSIISQTARALAVAHAQGLVHRDIKPGNLLITPDNRVKVTDFGIARLADQVPLTQTGQVMGTAQYLAPEQATGQTATGSSDIYSLGVIGYECLTGHRPFSGESQIAIALAQVNDAPPPLPETLPTPVRALLMSMLAKDPKNRPANAIKLAEAAEAIRNGDIATAHAAVPGMLLFESTTGPITAPVDTATAPTGVVTSPYGKEQSTTATSALPVLGAGAAGAALGAAAASDNPLTRANALEAERQLSDDEEVVYTDDENYDDAEPERKKRSPWTWPLVALILLVLFALVGFLISQSGFFSPSPAPSESTTTSASRSASPTSASATPTPRPTETSEAPQPTQSVPQKINVIPEQYQGQPFETVSAQLRALGLGVDGQEVFDDTAPVGIVTGLNPTGPVNPGETITVTYSKGPELVAVPAIAPGVDEARVQQAIEGAGLQWVAGEPVNGAIGQQPGTFVRSSPAAGSQVAAGSTVTYYLSKELVPIDPGTSTATPTGTGSPSR | failed |
| MAKDKDITETLLTAAEERSDLPFLSVDDIPPITTVGGFVREFNVETKKLWYLAGPAIFTSVNQYSLGAITQVFAGHISTIALAAVSVENSVVAGFSFGIMLGMGSALETLCGQAFGAGKLSMLGVYLQRSWVILNVTALILSLLYIFAAPILASIGQTAAISSAAGIFSIYMIPQIFAYAINFPTAKFLQSQSKIMVMAVISAVALVIHVPLTWFVIVKLQWGMPGLAVVLNASWCFIDMAQLVYIFSGTCGEAWSGFSWEAFHNLWSFVRLSLASAVMLCLEVWYFMAIILFAGYLKNAEISVAALSICMNILGWTAMIAIGMNTAVSVRVSNELGANHPRTAKFSLLVAVITSTLIGFIVSMILLIFRDQYPSLFVKDEKVIILVKELTPILALSIVINNVQPVLSGVAVGAGWQAVVAYVNIACYYVFGIPFGLLLGYKLNYGVMGIWCGMLTGTVVQTIVLTWMICKTNWDTEASMAEDRIREWGGEVSEIKQLIN | failed |
| MEMVHADVASLSITPCFPSSLSSSSHHHYNQQQHCIMSEDQHHSMDQTTSSDYFSLNIDNAQHLRSYYTSHREEDMNPNLSDYSNCNKKDTTVYRSCGHSSKASVSRGHWRPAEDTKLKELVAVYGPQNWNLIAEKLQGRSGKSCRLRWFNQLDPRINRRAFTEEEEERLMQAHRLYGNKWAMIARLFPGRTDNSVKNHWHVIMARKFREQSSSYRRRKTMVSLKPLINPNPHIFNDFDPTRLALTHLASSDHKQLMLPVPCFPGYDHENESPLMVDMFETQMMVGDYIAWTQEATTFDFLNQTGKSEIFERINEEKKPPFFDFLGLGTV | failed |
| MSADVERVLIQLQDEAGEVLGSPFDVPLDISPDKLQLVCNALLQKEEPVPFLFFVKDAELVSSLGSCIQTLGLETEQVLPVVYQPQAVFRVRAVARCTSSLEGHTEAVISVAFSPTGKYLASGSGDTTVRFWDLSTETPHHTSRGHTHWVLSIAWSPDGKKLASGCKNSQIFLWDPVTGKQIGKTLTGHTKWITWLCWEPLHLNPECRYLASTSKDCTIRIWDTVLGRYDKILTGHTHSVTCVKWGGDGLLYTSSQDRTIKVWRAKDGVQCRTLQGHAHWVNTLALSTDYVLRTGAFEPANATINPQDLTGSLEEIKEKALKRYNSVRGEGHERLVSGSDDFTMFLWNPAEDKKPVARLTGHQALVNEVLFSPDTRLIASASFDKSIKIWDGKTGKYLNSLRGHVGPVYQVAWSADSRLLVSGSSDSTLKVWDIKTGKLNADLPGHADEVFAVDWSPDGQRVASGGKDKCLRIWRK | not failed |
| MDQANSVPLSADEQREARRLQYLSWERVAADLDHPAHLARKAELRRSCGAELAETSYIAENAAIFTESLTMGEWSWIAGHALVRGDVILGEHCSINPYACVSGKVTCGNGVRIASHASIVGFNHGFDDPDRPIHRQGVVSIGIIIGDDVWIGANCVILDGVTIGNGAVIAAGAVVTQDIPSLAIAGGVPAKVLRNRGAPARKSAVRDIEDQLARLGQKAKEQWPDILAHWKTSEGYESLEADGVRRPSIRHLCDAIEIAAGFGHPPPGLDPAQTLERLQGLQDRETGLFPEAHSRVEGRALRVDPKALYNVLSVGYALELLGSGPQQPIQAVQIDAPELEQWLSALPWSSRAWHAGSVVDTIGTAMYFNARHFGIRGPRQALFEWLSRNADSVSGLWGEPTALEGWLQPVNGFYRLTRGTYAQFGMPLPHPHAALEAVHLNYRNHNGFVGGQYNACNLLDTIHPLLLIARQTDYRRADGEAIARSLISRAPDRWRDGEGFPFADGGEPSLQGTEMWLSVVHLAADFLGLADQFAFVPKGVHRTATPGLGL | failed |
| MKTSEERLLAPDSLPPDLAPAPVPQGSPAEKNTDFEPVPPPCGGDDQPQLATDPVASLVVSQELQQGDSVPLEVEFNTSSELSPGIEEQDVSEHASLPGEETNLPELESGEATEGVSEERAEVDEGDTFWTYSFSQVPRYLSGSWSEFSTRSENFLKGCKWAPDGSCILTNSADNVLRIYNLPPELYSEQEQVDYAEMVPVLRMVEGDTIYDYCWYSLMSSTQPDTSYVASSSRENPIHIWDAFTGELRASFRAYNHLDELTAAHSLCFSPDGSQLFCGFNRTVRVFSTSRPGRDCEVRATFAKKQGQSGIISCIAFSPSQPLYACGSYGRTIGLYAWDDGSPLALLGGHQGGITHLCFHPDGNLFFSGARKDAELLCWDLRQPGHLLWSLSREVTTNQRIYFDLDPSGQFLVSGNTSGVVSVWDISGALSDDSKLEPVVTFLPQKDCTNGVSLHPTLPLLATASGQRVFPEPTNSGDEGELELELPLLSLCHAHPECQLQLWWCGGGPDPSSPVDDQDEKGQRRTEAVGMS | failed |
| MHMDSVPPSPFPYPTPGTCGLLRLSPPPVSPRVTLAFPKVGKILRLPAQSDTVWNTLPHQLTPSSSCQPLRLLGYPPCAAVGLPLCCSEVGPGGLTQFPTQSTATSSAVGHGFQPPNPVAWSADHTRPVHTTLSSFLFSGTTQSPDLRPSVSGSGICLGSWPPSPPPNPSPALSFTPLLSTHSQWRDPAETARLARSGLFRPVIDVPESTASEQPEKGRRSRRGEEYSSPSLLPLPPTLALLRTSPSSLTAAWSGDCLRAPTRCPGSPAQRAPAPGPPRGAGASMEHLGPHHLHPGHAEPISFGIDQILNSPDQGGCMGPASRLQDGEYGLGCLVGGAYTYGGGGSAAGAGAGGTGAYGTGGPGGPGGPAGGGGGACSMGPLAGSYNVNMALAGGPGPGGGGGGAGAGGAGALSAAGVIRVPAHRPLAGAVAHPQPLATGLPTVPSVPAVPGVNNLTGLTFPWMESNRRYTKDRFTGHPYQNRTPPKKKKPRTSFTRLQICELEKRFHRQKYLASAERAALAKALKMTDAQVKTWFQNRRTKWRRQTAEEREAERQQANRILLQLQQEAFQKSLAQPLPADPLCVHNSSLFALQNLQPWSDDSTKITSVTSVASACE | failed |
| MNETLYCSFCKKPESRDPKKRRIIFASNLNKDVCVCEYCIDVMHGELHKYDNSLLALKRDRLRRMESSAYEEEFLLSYIPAPKELKAVLDNYVIGQEQAKKVFSVAVYNHYKRLSFKEKLKKQDNQDSNVELEHLEEVELSKSNILLIGPTGSGKTLMAQTLAKHLDIPIAISDATSLTEAGYVGEDVENILTRLLQASDWNVQKAQKGIVFIDEIDKISRLSENRSITRDVSGEGVQQALLKIVEGSLVNIPPKGGRKHPEGNFIQIDTSDILFICAGAFDGLAEIIKKRTTQNVLGFTQEKMSKKEQEAILHLVQTHDLVTYGLIPELIGRLPVLSTLDSISLEAMVDILQKPKNALIKQYQQLFKMDEVDLIFEEEAIKEIAQLALERKTGARGLRAIIEDFCLDIMFDLPKLKGSEVRITKDCVLKQAEPLIIAKTHSKILP | failed |
| MPVFPAGGGPLLTGGAAVHISASGAAKATLYCRVFLLDGTEVSVDLPKHAKGQDLFDQIVYHLDLVETDYFGLQFLDSAQVTHWLDHSKPIKKQMKVGPAYALHFRVKYYSSEPNNLREEFTRYLFVLQLRHDILSGKLKCPYETAVELAALCLQAELGECELPEHTPELVSEFRFIPNQTEAMEFDIFQRWKEYRGKSPAQAELSYLNKAKWLEMYGVDMHVVRGRDGCEYSLGLTPTGILIFEGANKIGLFFWPKITKMDFKKSKLTLVVVEDDDQGREQEHTFVFRLDSARTCKHLWKCAVEHHAFFRLRTPSNSKSARSDFIRLGSRFRFSGRTEYQATHGSRLRRTSTFERKPSKRYPSRRHSTFKASNPVIAAQLCSKTNPEVHNYQPQFHPNVHPSQPRWRPHSPNVSNHSTCKQNKPSFQDDRPHWKASASGDDGHFDYVHDQNQRNLGGAYSVTYRDKLMTAL | failed |
| MDLVGDRTPQLPEQVVRMKYFAMPPMTIQEALEHLEMVDHDFYVFRNRDTGEINVVYERNHGGYGVLEHHHHHH | failed |
| IFAEYIAIQACKEVNLDSYTREHTKDNLQSVTRGCFDLAQKRIFGLMEKDSYPRFLRSDLYLDLINQKKMSPPL | failed |
| MSDIQHQRMVTLCDDLKFLAVTDVYADLADAAAKQESSYIDYLEQVLKAENDVRQGRSRHTMAKLAGFPAIKTLEDYDFDFATGAPKQRILDLSAMAFLERRENVILLGPSGTGKTHLAIALGYRATQCGVKVRFISAADLMLQLESAQRQGRYKEVMRRSVLGPRLLIIDEIGYLPFSETQANLFFQVIAKRYETGSVILTSNLSFGEWEQAFGGNTALTSAMLDRLLHHAHVIQIRGDSYRLKEKRRAGILGQQLPTPQMDDLEHHHHHH | not failed |
| MRSKGRARKLATNNECVYGNYPEIPLEEMPDADGVASTPSLNIQEPCSPATSSEAFTPKEGSPYKAPIYIPDDIPIPAEFELRESNMPGAGLGIWTKRKIEVGEKFGPYVGEQRSNLKDPSYGWEVHLPRSRRVSVHSWLYLGKRSSDVGIAFSQADVYMPGLQCAFLS | failed |
| MAYKFRTHSPEALEQLYPWECFVFCLIIFGTFTNQIHKWSHTYFGLPRWVTLLQDWHVILPRKHHRIHHVSPHETYFCITTGVKVPRNFRLLEELEEGQKGVGDGTVSWGLEDDEDMTLTRWTGMIIGPPRTIYENRIYSLKIECGPKYPEAPPFVRFVTKINMNGVNSSNGVVDPRAISVLAKWQNSYSIKVVLQELRRLMMSKENMKLPQPPEGQCYSN | failed |
| MSAAFPPSLMMMQRPLGSSTAFSIDSLIGSPPQPSPGHFVYTGYPMFMPYRPVVLPPPPPPPPALPQAALQPALPPAHPHHQIPSLPTGFCSSLAQGMALTSTLMATLPGGFSASPQHQEAAAARKFAPQPLPGGGNFDKAEALQADAEDGKGFLAKEGSLLAFSAAETVQASLVGAVRGQGKDESKVEDDPKGKEESFSLESDVDYSSDDNLTGQAAHKEEDPGHALEETPPSSGAAGSTTSTGKNRRRRTAFTSEQLLELEKEFHCKKYLSLTERSQIAHALKLSEVQVKIWFQNRRAKWKRVKAGNANSKTGEPSRNPKIVVPIPVHVSRFAIRSQHQQLEQARP | failed |

Reference: a protein production outcome set (Wang et al. 2014)
